Results published in PubChem BioAssay AID1969 (National Center for Advancing Translational Sciences (NCATS), 2009).
Inconclusive means that the source gave no clear call. Such entries were picked first, then a sample of the others. A potency beside an inconclusive call is a rough fit, not a confirmed value. Calls of active or inactive are those of the source. The call rests on the fitted dose curve; in most records, active means well fitted inhibition curve with a large enough effect; inconclusive means small, poorly fitted or top-dose-only effect; inactive means flat fitted curve, though single readings scatter.

By UniProt entry, the sequences of proteins in these tests, tags left out. Where a name states a change or a piece, a line headed by the entry shows the natural chain unless it says otherwise.
UniProt Q9HAZ1: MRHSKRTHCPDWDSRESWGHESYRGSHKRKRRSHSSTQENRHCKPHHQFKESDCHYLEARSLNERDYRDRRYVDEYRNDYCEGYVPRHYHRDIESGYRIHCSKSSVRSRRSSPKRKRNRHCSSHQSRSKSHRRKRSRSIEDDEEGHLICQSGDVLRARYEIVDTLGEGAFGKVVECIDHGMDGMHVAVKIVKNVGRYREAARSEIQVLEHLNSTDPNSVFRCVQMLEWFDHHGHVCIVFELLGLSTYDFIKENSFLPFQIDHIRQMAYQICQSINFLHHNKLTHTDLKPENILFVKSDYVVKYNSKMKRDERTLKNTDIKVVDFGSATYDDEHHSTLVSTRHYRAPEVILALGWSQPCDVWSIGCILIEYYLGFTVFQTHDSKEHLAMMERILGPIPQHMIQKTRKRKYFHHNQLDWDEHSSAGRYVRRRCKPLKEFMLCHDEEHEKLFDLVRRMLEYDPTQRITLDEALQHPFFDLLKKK

Each compound was assayed against Dual specificity protein kinase CLK4 (Homo sapiens) (UniProt Q9HAZ1) (assay: Confirmaiton Assay for Inhibitors of CDC-like Kinase 4 (ADP-Glo Assay)). Details: recombinant Clk4, RS peptide, ADP-Glo luminescence; series mostly up to 80 µM; activity, negative = inhibition: at the top concentration.
Protocol: NIH Molecular Libraries Probe Production Centers Network [MLPCN] NIH Chemical Genomics Center [NCGC] MLPCN Grant: 1R03MH084827-01 Assay Submitter (PI): Tom Misteli NCGC Assay Overview: Clk4 (Invitrogen, cat# PV3839) was assayed using ATP and the RS repeat peptide (AnaSpec cat # 61722) as substrates. In the assay, the ADP levels were detected using Promega ADP-Glo technology wherein the remaining ATP from the kinase reaction is first depleted with an ATPase reagent followed by a reagent that contains and enzyme which converts the ADP produced to ATP as well as Ultra-Glo luciferase and D-luciferin which generates a bioluminescence signal from the ATP. The positive control for the assay was TG003 (Sigma-Aldrich, cat# 300801-52-9) which has been described as an inhibitor of Clk 4[1].
NCGC Assay Protocol Summary: Two uL/well of substrate-buffer solution (100 uM RS peptide, 1 uM ATP, 1x ADP-Glo Buffer A, 2 mM MgCl2, 0.5 mM EGTA, 2.5 mM DTT, 0.01% Triton X-100, final concentrations) was dispensed into 1536-well plates (Greiner, solid white, medium binding assay plates) with the Aurora Discovery BioRAPTR Flying Reagent Dispenser (FRD; Beckton-Dickenson). Twenty-three nanoliter of compound and control solutions were transferred to the assay plate using a Kalypsys pin-tool followed by 0.5 uL/well Clk4-buffer solution (25 nM Clk4, 1x ADP-Glo Buffer A, 2 mM MgCl2, 0.5 mM EGTA, 2.5 mM DTT, 0.01% Triton X-100 final concentration) dispensing for a total kinase reaction volume of 2.5 uL/ well. After 1 hr of room-temperature incubation, 2.5 uL ADP-Glo reagent was added and incubated at room temperature for 45 min to stop the kinetic reaction and degrade residual ATP. The ADP product was then converted to ATP by adding 5 uL per well of ADP-Glo Reagent II to yield a total assay volume of 10 uL/ well. Luminescence was detected after 30 min room temperature incubation with the Perkin Elmer Viewlux.

| SMILES | activity, negative = inhibition | Potency |
| --- | --- | --- |
| Cc1csc(CNc2ncnc3ccc(-c4ccco4)cc23)c1 | inactive: -1.7% | – |
| Clc1cccc(-c2ccc3ncnc(NCc4ccc5c(c4)OCO5)c3c2)c1 | – | inconclusive: 7.08 µM [falling, full curve] |
| CN(Cc1ccco1)c1ncnc2ccc(-c3ccoc3)cc12 | – | active: 0.251 µM |
| Cn1ccc2cc(-c3ccc4ncnc(NCc5ccc6c(c5)OCO6)c4c3)ccc21 | – | inconclusive: 17.8 µM [falling, full curve, poor fit] |
| Cc1cccc(CNc2ncnc3ccc(-c4ccc5c(ccn5C)c4)cc23)c1 | – | inconclusive: 15.8 µM [falling, full curve] |
| Clc1ccccc1-c1ccc2ncnc(NCc3ccc4c(c3)OCO4)c2c1 | – | inconclusive: 14.1 µM [falling, full curve] |
| Cn1ccc2cc(-c3ccc4ncnc(NCc5cccc(F)c5)c4c3)ccc21 | – | inconclusive: 14.1 µM [falling, full curve] |
